Source: PubChem BioAssay AID652272 (Drosophila RNAi Screening Center, 2013)
The deposit covers about 21,000 reagents; this is a random part of those with a known target gene and a result. Over the whole deposit, 503 (2.4%) were called active. 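Raw plate light values, not normalised; calls rest on replicate z-scores that were not deposited; hits include reporter decreases as well as increases.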 A number with no mark means an inactive call. A plus sign joins genes that one reagent is predicted to hit. Not stated in the record: the amount of reagent, the time to read-out.

Assay: 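Finding fly genes that regulate Hedgehog signal transduction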 (primary screen)
Cells: Drosophila clone 8 (Cl8) cells
Reagents: long dsRNA against Drosophila genes
Measurement: 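Plate reader light from a firefly reporter under a ptc promoter fragment that responds to Hedgehog, with Renilla light as transfection reference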
Scale: firefly Hh reporter signal: higher = more ptc reporter light; Renilla reference signal: higher = more Renilla control light
Hit rule: 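Called a hit if the two-replicate mean z-score lies below -2 or above +3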
Calls: active = hit: reporter lowered or raised; inactive = not a hit

Target gene | dsRNA | firefly Hh reporter signal, replicate 1 | firefly Hh reporter signal, replicate 2 | firefly Hh reporter signal, replicate 3 | Renilla reference signal, replicate 1 | Renilla reference signal, replicate 2
COX7A | DRSC16514 | 86528 | 1.54e5 | – | 2956 | 3308
Pgcl | DRSC18815 | 93168 | 3.25e5 | – | 2144 | 12352
CG4278 | DRSC02741 | 78646 | 64353 | – | 3732 | 2752
CG10477 | DRSC09732 | 60541 | 61584 | – | 5877 | 4632
FASN1 | DRSC00268 | 55888 | 55805 | – | 3412 | 2930
fkh | DRSC16949 | 95815 | 1.39e5 | – | 3508 | 3795
Cpr47Ed | DRSC07331 | 96405 | 50516 | – | 2424 | 3895
CG9021 | DRSC03128 | 1.10e5 | 54109 | – | 3970 | 2534
Tfb4 | DRSC00675 | 1.23e5 | 97852 | – | 2501 | 1744
CG33110 | DRSC14694 | 2.03e5 (active) | 27029 | – | 15889 | 1360
CG33110 | DRSC16137 | 6.11e5 | 1.12e5 | – | 32192 | 3222
CG8534 | DRSC16439 | 1.75e5 | 2.16e5 | – | 3898 | 6193
Prosbeta2R1 | DRSC18154 | 1.25e5 | 2.75e5 | – | 4387 | 10368
Ugt37A3 | DRSC15937 | 1.34e5 | 1.07e5 | – | 5700 | 2794
ppk12 | DRSC04086 | 84544 | 66179 | – | 970 | 4996
Nak | DRSC03379 | 85063 | 61331 | – | 3088 | 2714
tacc | DRSC12019 | 2.11e5 | – | – | 4672 | –
tacc | DRSC12388 | 1.74e5 | 1.07e5 | – | 5892 | 2905
ari-1 | DRSC20308 | 1.23e5 | 4.17e5 | – | 3898 | 15653
l(2)gd1 | DRSC02773 | 52819 | 58168 | – | 2912 | 2464
ed | DRSC00350 | 69809 | 86555 | – | 2821 | 3563
ed | DRSC00438 | 1.04e5 | 61609 | – | 3306 | 5333
ed | DRSC00439 | 1.50e5 | 71508 | – | 4273 | 6784
ed | DRSC00478 | 1.49e5 | 64962 | – | 3978 | 6186
HP5 | DRSC19773 | 1.30e5 | 64912 | – | 3216 | 1851
CG14932 | DRSC02414 | 1.27e5 | 67172 | – | 3067 | 4453
CG7849 | DRSC04895 | 91431 | 74829 | – | 1586 | 6187
CG9522 | DRSC20197 | 76796 | 1.49e5 | – | 2182 | 5611
CG42562 | DRSC06453 | 1.35e5 | 59786 | – | 3768 | 4369
CG2921 | DRSC04324 | 55284 | 58230 | – | 2584 | 2208
lncRNA:CR43491 | DRSC19184 | 5.21e5 | 1.50e5 | – | 31451 | 3040
CG17300 | DRSC10260 | 52843 | 41029 | 45648 | 3733 | 3122
CG13185 | DRSC06310 | 85394 | 40608 | – | 4007 | 1894
ymp | DRSC13720 | 51687 | 2.88e5 | – | 12432 | 7136
ymp | DRSC14482 | 5.96e5 | 1.02e5 | – | 28395 | 2762
Polr3K + Tcs1 | DRSC05988 | 1.22e5 | 62553 | – | 3499 | 5011
CG3919 | DRSC10389 | 1.13e5 | 1.13e5 | – | 4106 | 4532

Part of the list above, limited to “Renilla reference signal, replicate 2”:
FASN1 [DRSC00268]: 2930
fkh [DRSC16949]: 3795
Cpr47Ed [DRSC07331]: 3895

Additional records follow:
Target gene | dsRNA | firefly Hh reporter signal, replicate 1 | firefly Hh reporter signal, replicate 2 | firefly Hh reporter signal, replicate 3 | Renilla reference signal, replicate 1 | Renilla reference signal, replicate 2
CG17145 | DRSC10247 | 1.07e5 | 1.20e5 | – | 2979 | 3301
Mo25 | DRSC11224 | 77072 | 81048 | – | 2930 | 2077
Dys | DRSC13360 | 49303 | 2.58e5 | – | 10233 | 5600
Dys | DRSC13364 | 56336 | 2.26e5 | – | 12067 | 5468
Dys | DRSC15260 | 7.04e5 | 1.32e5 | – | 39685 | 2855
Dys | DRSC16218 | 5.08e5 | 77980 | – | 30291 | 2028
Dys | DRSC16219 | 5.79e5 | 88197 | – | 35138 | 2314
Dys | DRSC16220 | 5.24e5 | 85616 | – | 29945 | 2058
Dys | DRSC16935 | 5.11e5 | 72738 | – | 29463 | 2354
SmB | DRSC03437 | 50108 | 48857 | – | 2866 | 2435
CG6398 | DRSC19992 | 1.31e5 | 1.25e5 | – | 3068 | 2776
Tbca | DRSC15395 | 69056 | 56992 | – | 1701 | 1943
CG3987 | DRSC15531 | 1.39e5 | 1.07e5 | – | 5959 | 4557
CG42552 (retired record) | DRSC11512 | 1.79e5 | – | – | 3820 | –
Eig71Ea | DRSC11148 | 1.49e5 | – | – | 5004 | 4041
opm | DRSC20141 | 1.65e5 | 1.21e5 | – | 4045 | 3021
CecA1 | DRSC16603 | 82872 | 98666 | – | 2189 | 2929
KdelR | DRSC03353 | 57859 | 56573 | – | 3139 | 2400
CG10104 | DRSC05964 | 1.09e5 | 55744 | – | 2688 | 4469
Naprt | DRSC00630 | 97476 | 1.01e5 | – | 4113 | 4340
